# Hit rate of the full screen: of about 300,000 compounds, about 5,400 (1.8%) were called active. The shares of active, inactive and inconclusive entries below differ from those in the screen. Calls follow the shape of the full dose curve; tested in HEK293 cells. Where the call is inconclusive, the potency comes from a doubtful curve fit.
# Assay: qHTS for inhibitors of binding or entry into cells for Marburg Virus
# Conditions: Marburg virus pseudotyped entry inhibition, cell reporter; activity change, negative = inhibition: at 37.8 µM (top of the series) unless noted
# % is scaled to controls: 0 for no effect and ±100 for the full control effect; potency is read from the fitted curve at half-maximal effect.
Structure (SMILES),"activity change, negative = inhibition",Potency
Cc1nn(Cc2ccccc2Cl)c(Cl)c1C(=O)NCCc1ccccc1,inactive: 23.8%,
COc1ccc(CCNC(=O)CCCn2c(=O)c3ccccc3n(CC(=O)Nc3c(C)cc(C)cc3C)c2=O)cc1OC,inactive: -8.05% [at 46.1 µM],
O=C(N/N=C/c1ccco1)c1cccc(NC(=O)c2cccc(Cl)c2)c1,inactive: -11.4% [at 46.1 µM],
Nc1ccc(C(=O)N/N=C/c2ccccc2)cc1,,"inconclusive: 9.2 µM [activator, partial curve, poor fit]"
Cc1cccc(Oc2ncccc2[N+](=O)[O-])c1C,,"inconclusive: 3.16 µM [inhibitor, full curve]"
COc1cccc(N2CCN(c3ncccn3)CC2)c1,,"inconclusive: 1.3 µM [activator, full curve, poor fit]"
O=C(c1coc2ccc(O)cc12)C1CC1,inactive: 0.0171%,
Cc1ccc(NC(=O)N2CCCc3ccccc32)cc1C,,"inconclusive: 35.5 µM [inhibitor, single point]"
COc1cccc(OC)c1C(=O)Nn1c(-c2cccc(C)c2)nc2ccccc2c1=O,,"inconclusive: 12.6 µM [inhibitor, single point]"
CCN1Cc2cccc(C(=O)Nc3ccc(F)cc3)c2C1=O,,"inconclusive: 0.562 µM [activator, full curve, poor fit]"
O=[N+]([O-])c1cccc(-c2nc(-c3cccs3)c(-c3cccs3)[nH]2)c1,,"inconclusive: 14.1 µM [inhibitor, partial curve, poor fit]"
CCn1c(SCC(=O)c2cccs2)nnc1-c1cccs1,inactive: 22.9%,
O=C1CCCN1c1ccc(S(=O)(=O)NCCOc2ccccc2)cc1,inactive: -14.2%,
CNC(=O)c1ccc(NC(=O)c2nsc3ccccc23)cc1,,"inconclusive: 0.708 µM [activator, full curve, poor fit]"
Cc1ccc(C)n1-c1nccc(-c2cccs2)n1,inactive: 7.12%,
CN(c1ccccc1)S(=O)(=O)c1cccc(NC(=O)CN2C(=O)NC3(CCCC3)C2=O)c1,inactive: -0.592%,
CC1=C(c2ccc(Cl)cc2)S(=O)(=O)N=C1N1CCN(c2cccc(C)c2)C(C)C1 (configuration not stated),inactive: -8.56% [at 46.1 µM],
CCOc1ccc2nc(N3CCCCCC3)sc2c1,,"inconclusive: 29.1 µM [inhibitor, single point]"
CC12CCC(C(=O)NCc3ccc4c(c3)OCO4)(CC1=O)C2(C)C (configuration not stated),,"inconclusive: 0.316 µM [activator, partial curve, poor fit]"
CC1NC(=O)NC1CCCCCC(=O)Nc1ccc(F)cc1 (configuration not stated),,"inconclusive: 12.6 µM [activator, single point]"
Cc1ccc(N2CC(c3nnc(Cc4ccc(F)cc4Cl)o3)CC2=O)cc1 (configuration not stated),inactive: -0.258% [at 46.1 µM],
Cc1cc(-c2ccc(NC(=O)[C@@H]3CCCC[C@@H]3C(=O)O)c(C)c2)ccc1NC(=O)[C@@H]1CCCC[C@@H]1C(=O)O,,"inconclusive: 6.31 µM [activator, partial curve, poor fit]"
CCN1C(=O)[C@@H]2[C@H]3C(=CC[C@@H]2C1=O)C1(OCCCO1)[C@H]1O[C@@H]1[C@H]3O,,"inconclusive: 5.31 µM [activator, partial curve, poor fit]"

# Individual results from the entries so far:
# `CC1=C(c2ccc(Cl)cc2)S(=O)(=O)N=C1N1CCN(c2cccc(C)c2)C(C)C1` (configuration not stated) | activity change, negative = inhibition: inactive: -8.56% [at 46.1 µM]
# `O=[N+]([O-])c1cccc(-c2nc(-c3cccs3)c(-c3cccs3)[nH]2)c1` | Potency: inconclusive: 14.1 µM [inhibitor, partial curve, poor fit]
# `CC12CCC(C(=O)NCc3ccc4c(c3)OCO4)(CC1=O)C2(C)C` (configuration not stated) | Potency: inconclusive: 0.316 µM [activator, partial curve, poor fit]
# `Cc1cccc(Oc2ncccc2[N+](=O)[O-])c1C` | Potency: inconclusive: 3.16 µM [inhibitor, full curve]

# Remaining list, next part.

Structure (SMILES),"activity change, negative = inhibition",Potency
CC(C)(C)n1nnnc1CN1CCSCC1,,"inconclusive: 2 µM [activator, single point]"
Cn1c(=O)[nH]c(=O)c2c1nc(CN1CCN(c3cccc(Cl)c3)CC1)n2CCc1ccccc1,,"inconclusive: 29.1 µM [inhibitor, single point]"
CCN(CC)C(=O)Oc1ccc2c(=O)c(-c3ccccc3)coc2c1,,"inconclusive: 14.6 µM [activator, partial curve, poor fit]"
COC(=O)N[C@H](CC(C)=O)c1ccc(F)cc1,,"inconclusive: 6.68 µM [activator, single point]"
COc1ccc(C(=O)Nc2ccc(Cl)c(Cl)c2)c(OC)n1,,"inconclusive: 10 µM [inhibitor, partial curve]"
O=C1OC(=O)[C@@H]2[C@@H]1[C@@H]1CC[C@H]2O1,,"inconclusive: 8.2 µM [inhibitor, partial curve]"
Cc1ccc(NC(=O)N(Cc2ccc3c(c2)OCO3)Cc2cc3cc4c(cc3[nH]c2=O)OCCO4)cc1,,"inconclusive: 11.2 µM [inhibitor, partial curve, poor fit]"
O=P(N1CCCCCC1)(N1CCCCCC1)N1CC1,,"inconclusive: 7.94 µM [inhibitor, partial curve, poor fit]"
CC(=O)Nc1c(O)nc(SCC(=O)Nc2ccc(C(C)=O)cc2)[nH]c1=O,inactive: 19.2%,
CCCCn1c(-c2csc3c2CCCC3)n[nH]c1=S,inactive: 2.52%,
Cc1cccc(NC(=O)COC(=O)C2C3CC4OC(=O)C2C4C3)c1C (configuration not stated),inactive: 11.9% [at 46.1 µM],
CCN(CC)S(=O)(=O)c1cccc(C(=O)N/N=C/c2ccc(OC)c(O)c2)c1,,"inconclusive: 31.6 µM [activator, single point]"
c1ccc(CSc2ccc(-c3ccccn3)nn2)cc1,,"inconclusive: 11.2 µM [inhibitor, partial curve, poor fit]"
c1ccc(-c2ccccc2OCCOCCN2CCNCC2)cc1,,"inconclusive: 1.78 µM [activator, full curve]"
COc1ccc(-c2[nH]c(-c3ccc(F)cc3)nc2SCC(=O)Nc2ccc(OC)c(OC)c2)cc1,,"inconclusive: 2.51 µM [inhibitor, partial curve, poor fit]"
CCS(=O)(=O)Nc1ccc(C(=O)CC2(O)C(=O)Nc3ccc(Br)cc32)cc1 (configuration not stated),,"inconclusive: 0.316 µM [activator, full curve, poor fit]"
COc1ccccc1Nc1nc(N)nc(CSc2nccn2C)n1,inactive: -2.27%,
Nc1ccc(C(=O)N/N=C/c2sc(N3CCOCC3)nc2-c2ccccc2)cc1,,"inconclusive: 1.03 µM [activator, single point]"
Cc1nc(-c2ccccc2)sc1-c1n[nH]c(=S)n1C,inactive: 18.7%,
Cc1ccc(-n2c(SCC(=O)N3CCC(C(=O)O)CC3)nc3ccccc3c2=O)cc1C,,"inconclusive: 12.6 µM [activator, single point]"
COc1ccccc1CN1C2CCCC1CC(NC(=O)/C=C/c1ccccc1)C2 (configuration not stated),,"inconclusive: 35.5 µM [inhibitor, single point]"
Cn1c(=O)c2c(nc(Oc3ccc4c(c3)OCO4)n2Cc2ccc(Cl)cc2)n(C)c1=O,,"inconclusive: 35.5 µM [activator, single point]"
COc1cccc(C(=O)C2CCCN(C/C=C/c3ccccc3OC)C2)c1 (configuration not stated),,"inconclusive: 14.1 µM [inhibitor, partial curve, poor fit]"

Structure (SMILES),"activity change, negative = inhibition",Potency
COc1cccc(OCc2cc(C(=O)N(C)C3CC(C)(C)NC(C)(C)C3)no2)c1,,"inconclusive: 35.5 µM [inhibitor, single point]"
O=[N+]([O-])c1ccccc1S(=O)(=O)Nc1nc2ccccc2s1,,"inconclusive: 31.6 µM [activator, single point]"
Cc1cc(Nc2ccccc2)nn1C(=O)c1ccc(Br)cc1,inactive: 0.851%,
N#CCCn1cc(C(=O)Nc2ccc([N+](=O)[O-])cc2)c(-c2cc3ccccc3o2)n1,,"inconclusive: 29.1 µM [inhibitor, single point]"
O=C(N/N=C/c1c[nH]c2ccccc12)c1cc(-c2cccc3ccccc23)n[nH]1,,"inconclusive: 8.91 µM [inhibitor, partial curve, poor fit]"
COc1ccc(C2C3C(C)=NN=C3CC(C)(O)C2C(C)=O)cc1 (configuration not stated),,"inconclusive: 2.91 µM [activator, partial curve, poor fit]"
O=C(CCN1C(=O)c2ccccc2C1=O)Nn1cnnc1,inactive: 14.1%,
Oc1ccccc1C=Nc1ccccc1-c1nc2ccccc2[nH]1,,"inconclusive: 6.31 µM [inhibitor, full curve, poor fit]"
Cc1cccc(C(=O)N2CCN(c3ccc([N+](=O)[O-])c(NCc4ccco4)c3)CC2)c1,,"inconclusive: 4.47 µM [inhibitor, partial curve, poor fit]"
CCOC(=O)N1CCc2c(sc3c2c(=O)n(Cc2ccccc2)c(=O)n3CC(=O)Nc2c(C)cccc2C)C1,,"inconclusive: 6.31 µM [inhibitor, single point]"
COC(=O)c1c(NC(=O)C2CC2)sc(C(=O)Nc2ccccc2)c1C,,"inconclusive: 29.1 µM [inhibitor, single point]"
Cc1ccc(-n2[nH]c(C)c(C=Nc3ccc4[nH]c(=O)[nH]c4c3)c2=O)cc1,,"inconclusive: 35.5 µM [inhibitor, single point]"
C/C(=N/NC(=O)c1ccc2nc[nH]c2c1)c1cccs1,,"inconclusive: 17.8 µM [inhibitor, single point]"
Cc1ccc(NS(=O)(=O)c2cccc(C(=O)N3CCCCCC3)c2)cc1,,"inconclusive: 11.2 µM [inhibitor, single point]"
CC(C)C(NC(=O)c1ccccc1)C(=O)OCc1cc([N+](=O)[O-])cc2c1OCOC2 (configuration not stated),inactive: 0.677%,
N/C(=N\NC(=O)c1sccc1OCc1ccc(Cl)cc1Cl)c1ccccn1,,active: 8.91 µM
O=C(Nc1nccs1)c1ccc2nccnc2c1,inactive: 3.64%,
COc1ccc(C(=O)NC2=C(C#N)CCC2)cc1OC,inactive: 11.7%,
O=c1c2c3c(sc2nc2n1CCCCC2)C(O)CCC3 (configuration not stated),,"inconclusive: 0.631 µM [activator, single point]"
Brc1ccc2c(c1)C(C1=NCCN1)c1ccccc1CS2 (configuration not stated),,"inconclusive: 1.64 µM [inhibitor, full curve, poor fit]"
Cc1cc(C)n(C(=O)CNC(=O)c2cccc(Cl)c2)n1,,"inconclusive: 35.5 µM [activator, single point]"

# Source: PubChem BioAssay AID540276 (National Center for Advancing Translational Sciences (NCATS), 2011)
